The supplement of paper PMC8728848
The list shows a part of the results.

Assays:
Experiment in all cases: glycan array binding signal (z-score within array); higher = stronger binding
Details in all cases: glycan notation: IUPAC condensed, linker removed
[1] = target: Fuc(a1-2)[GalNAc(b1-3)]Gal
Method in brief: (§1)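 Negative Z-scores can be read as non-binding. The Z-score is calculated within each array and then averaged across arrays of one protein sequence at different concentrations or buffers and across linkers. Arrays, 3228 in all, were curated from the Consortium for Functional Glycomics database and kept only where the protein sequence was available.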

[2] = target: Fuc(a1-3)GlcNAc
Method in brief: as §1

[3] = target: Fuc(a1-3)[Gal(b1-4)]Glc6S
Method in brief: as §1

[4] = target: Fuc(a1-3)[Gal(b1-4)]GlcNAc
Method in brief: as §1

[5] = target: Fuc(a1-3)[Gal(b1-4)]GlcNAc(b1-2)Man
Method in brief: as §1

[6] = target: Fuc(a1-3)[Gal(b1-4)]GlcNAc(b1-2)Man(a1-3)[Fuc(a1-3)[Gal(b1-4)]GlcNAc(b1-2)Man(a1-6)]Man(b1-4)GlcNAc(b1-4)GlcNAc
Method in brief: as §1

[7] = target: Fuc(a1-3)[Gal(b1-4)]GlcNAc(b1-2)Man(a1-3)[Fuc(a1-3)[Gal(b1-4)]GlcNAc(b1-2)Man(a1-6)]Man(b1-4)GlcNAc(b1-4)[Fuc(a1-6)]GlcNAc
Method in brief: as §1

[8] = target: Fuc(a1-3)[Gal(b1-4)]GlcNAc(b1-3)Gal(b1-3)[Fuc(a1-4)]GlcNAc
Method in brief: as §1

[9] = target: Fuc(a1-3)[Gal(b1-4)]GlcNAc(b1-3)Gal(b1-4)[Fuc(a1-3)]GlcNAc
Method in brief: as §1

[10] = target: Fuc(a1-3)[Gal(b1-4)]GlcNAc(b1-3)Gal(b1-4)[Fuc(a1-3)]GlcNAc(b1-3)Gal(b1-4)[Fuc(a1-3)]GlcNAc
Method in brief: as §1

[11] = target: Fuc(a1-3)[Gal(b1-4)]GlcNAc(b1-3)GalNAc
Method in brief: as §1

[12] = target: Fuc(a1-3)[Gal(b1-4)]GlcNAc(b1-6)GalNAc
Method in brief: as §1

[13] = target: Fuc(a1-3)[Gal(b1-4)]GlcNAc(b1-6)[Gal(b1-3)GlcNAc(b1-3)]Gal(b1-4)Glc
Method in brief: as §1

[14] = target: Fuc(a1-3)[Gal(b1-4)]GlcNAc6S
Method in brief: as §1

[15] = target: Fuc(a1-3)[Gal3S(b1-4)]Glc
Method in brief: as §1

[16] = target: Fuc(a1-3)[Gal3S(b1-4)]GlcNAc
Method in brief: as §1

[17] = target: Fuc(a1-3)[Gal3S(b1-4)]GlcNAc6S
Method in brief: as §1

[18] = target: Fuc(a1-3)[GalNAc(b1-4)]GlcNAc
Method in brief: as §1

[19] = target: Fuc(a1-3)[GalNAc(b1-4)]GlcNAc6S
Method in brief: as §1

[20] = target: Fuc(a1-4)GlcNAc
Method in brief: as §1

[21] = target: Fuc(b1-3)GlcNAc
Method in brief: as §1

[22] = target: Gal(a1-2)Gal
Method in brief: as §1

[23] = target: Gal(a1-3)Gal
Method in brief: as §1

[24] = target: Gal(a1-3)Gal(b1-3)GlcNAc
Method in brief: as §1

[25] = target: Gal(a1-3)Gal(b1-3)GlcNAc(b1-2)Man
Method in brief: as §1

[26] = target: Gal(a1-3)Gal(b1-3)GlcNAc(b1-2)Man(a1-3)[Gal(a1-3)Gal(b1-3)GlcNAc(b1-2)Man(a1-6)]Man(b1-4)GlcNAc(b1-4)GlcNAc
Method in brief: as §1

[27] = target: Gal(a1-3)Gal(b1-3)GlcNAc(b1-3)GalNAc
Method in brief: as §1

[28] = target: Gal(a1-3)Gal(b1-3)GlcNAc(b1-6)GalNAc
Method in brief: as §1

[29] = target: Gal(a1-3)Gal(b1-3)[Fuc(a1-4)]GlcNAc(b1-2)Man(a1-3)[Gal(a1-3)Gal(b1-3)[Fuc(a1-4)]GlcNAc(b1-2)Man(a1-6)]Man(b1-4)GlcNAc(b1-4)GlcNAc
Method in brief: as §1

[30] = target: Gal(a1-3)Gal(b1-4)Glc
Method in brief: as §1

[31] = target: Gal(a1-3)Gal(b1-4)GlcNAc
Method in brief: as §1

[32] = target: Gal(a1-3)Gal(b1-4)GlcNAc(b1-2)Man
Method in brief: as §1

[33] = target: Gal(a1-3)Gal(b1-4)GlcNAc(b1-2)Man(a1-3)[Gal(a1-3)Gal(b1-4)GlcNAc(b1-2)Man(a1-6)]Man(b1-4)GlcNAc(b1-4)GlcNAc
Method in brief: as §1

[34] = target: Gal(a1-3)Gal(b1-4)GlcNAc(b1-3)GalNAc
Method in brief: as §1

[35] = target: Gal(a1-3)Gal(b1-4)GlcNAc(b1-6)GalNAc
Method in brief: as §1

[36] = target: Gal(a1-3)Gal(b1-4)[Fuc(a1-3)]GlcNAc
Method in brief: as §1

[37] = target: Gal(a1-3)Gal(b1-4)[Fuc(a1-3)]GlcNAc(b1-2)Man(a1-3)[Gal(a1-3)Gal(b1-4)[Fuc(a1-3)]GlcNAc(b1-2)Man(a1-6)]Man(b1-4)GlcNAc(b1-4)GlcNAc
Method in brief: as §1

[38] = target: Gal(a1-3)GalNAc
Method in brief: as §1

[39] = target: Gal(a1-3)[Gal(a1-4)]Gal(b1-4)GlcNAc
Method in brief: as §1

[40] = target: Gal(a1-4)Gal(b1-3)GlcNAc(b1-2)Man(a1-3)[Gal(a1-4)Gal(b1-3)GlcNAc(b1-2)Man(a1-6)]Man(b1-4)GlcNAc(b1-4)GlcNAc
Method in brief: as §1

[41] = target: Gal(a1-4)Gal(b1-4)Glc
Method in brief: as §1

[42] = target: Gal(a1-4)Gal(b1-4)GlcNAc
Method in brief: as §1

[43] = target: Gal(a1-4)Gal(b1-4)GlcNAc(b1-2)Man(a1-3)[Gal(a1-4)Gal(b1-4)GlcNAc(b1-2)Man(a1-6)]Man(b1-4)GlcNAc(b1-4)GlcNAc
Method in brief: as §1

[44] = target: Gal(a1-4)Gal(b1-4)GlcNAc(b1-3)Gal(b1-4)Glc
Method in brief: as §1

[45] = target: Gal(a1-4)GlcNAc
Method in brief: as §1

B1: CBP21 (Serratia marcescens), O83009 (protein)
chain: MNKTSRTLLSLGLLSAAMFGVSQQANAHGYVESPASRAYQCKLQLNTQCGSVQYEPQSVEGLKGFPQAGPADGHIASADKSTFFELDQQTPTRWNKLNLKTGPNSFTWKLTARHSTTSWRYFITKPNWDASQPLTRASFDLTPFCQFNDGGAIPAAQVTHQCNIPADRSGSHVILAVWDIADTANAFYQAIDVNLSK
[1]
  glycan array binding signal (z-score): -0.158
[2]
  glycan array binding signal (z-score): -1.02
[3]
  glycan array binding signal (z-score): 0.549
[4]
  glycan array binding signal (z-score): -1.06
[5]
  glycan array binding signal (z-score): -0.481
[6]
  glycan array binding signal (z-score): -0.009
[7]
  glycan array binding signal (z-score): 0.55
[8]
  glycan array binding signal (z-score): -0.414
[9]
  glycan array binding signal (z-score): 0.818
[10]
  glycan array binding signal (z-score): -1.15
[11]
  glycan array binding signal (z-score): 0.402
[12]
  glycan array binding signal (z-score): -0.688
[13]
  glycan array binding signal (z-score): 0.042
[14]
  glycan array binding signal (z-score): -0.134
[15]
  glycan array binding signal (z-score): -0.954
[16]
  glycan array binding signal (z-score): 0.221
[17]
  glycan array binding signal (z-score): -0.484
[18]
  glycan array binding signal (z-score): 1.56
[19]
  glycan array binding signal (z-score): 0.894
[20]
  glycan array binding signal (z-score): -1.39
[21]
  glycan array binding signal (z-score): 1.28
[22]
  glycan array binding signal (z-score): -2.54
[23]
  glycan array binding signal (z-score): -0.172
[24]
  glycan array binding signal (z-score): -0.788
[25]
  glycan array binding signal (z-score): -0.462
[26]
  glycan array binding signal (z-score): -0.517
[27]
  glycan array binding signal (z-score): -1.87
[28]
  glycan array binding signal (z-score): -0.703
[29]
  glycan array binding signal (z-score): 1.67
[30]
  glycan array binding signal (z-score): -0.085
[31]
  glycan array binding signal (z-score): -0.806
[32]
  glycan array binding signal (z-score): -1.04
[33]
  glycan array binding signal (z-score): -0.019
[34]
  glycan array binding signal (z-score): -0.876
[35]
  glycan array binding signal (z-score): -0.138
[36]
  glycan array binding signal (z-score): -0.54
[37]
  glycan array binding signal (z-score): 0.125
[38]
  glycan array binding signal (z-score): -0.024
[39]
  glycan array binding signal (z-score): 0.762
[40]
  glycan array binding signal (z-score): -0.618
[41]
  glycan array binding signal (z-score): -0.834
[42]
  glycan array binding signal (z-score): -0.126
[43]
  glycan array binding signal (z-score): 0.617
[44]
  glycan array binding signal (z-score): 0.777
[45]
  glycan array binding signal (z-score): -0.226
